In patent publication US9714401B2, “Particles for malodor reduction” (The Procter & Gamble Company, priority 2015, dated 2017):

Assay: Fragrance Fidelity Index (FFI), expert graders smelling treated fabric swatches against ethyl vanillin reference scale
[1] = test material Conc 10 ppm on fabric swatch
[2] = test material Conc 50 ppm on fabric swatch
[3] = Conc 10 ppm test material on swatch
[4] = Conc 50 ppm test material on swatch

Row | Compound | FFI [1] | FFI [2] | FFI [3] | FFI [4]
1 | CC1(C)CCc2ccc(CCC=O)cc21 | 0 | 0.5 |  | 
2 | CC1CCC2(C(C)C)CC(C)OC2C1 (centres unmarked) |  | 0.3 |  | 
3 | O=C1CCC2CCCCC2O1 (centres unmarked) [3,4,4a,5,6,7,8,8a-octahydrochromen-2-one] |  |  | 0 | 0
4 | CC(C)(C)C1CCCCC1 [4-tert-butyl cyclohexane] |  |  | 0 | 0.3
5 | CCC(=O)OC1CC2C3C=CCC3C1C2(C)C (centres unmarked) [8,8-dimethyl-3a,4,5,6,7,7a-hexahydro-1H-4,7-methanoinden-6-yl propionate] | 0 | 0 |  | 
6 | CCCCCCCCCCCCO [Material 174] |  |  |  | 0.5
7 | CC(=O)OCCCCCCC(C)C [Material 204] |  |  | 0 | 0
8 | CC1(C)CCc2ccc(CCC=O)cc21 [Material 261] |  |  | 0 | 1.3
9 | CC(=O)OC1CC2CC1C1CC=CC21 (centres unmarked) [Material 281] |  |  | 0 | 0.5
10 | CCCCCCCCCCCC(=O)OCC [Material 391] |  |  |  | 0.3
11 | C=CC(C)=CCC=C(C)C [Material 524] |  |  |  | 0
12 | CCC(O)COC1CCCCC1C(C)(C)C (centres unmarked) [Material 677] |  |  | 0 | 1.8
13 | CC(CCO)CCc1ccccc1 (centres unmarked) [Material 962] |  |  | 0 | 0.5
14 | CCOC(=O)OC1C(C)CCC(C)C1C (centres unmarked) [Material 1005] |  |  |  | 0.5
15 | COC(=O)OC1CCC=CCCC1 (centres unmarked) [Material 1139] |  |  | 0 | 1.0
16 | C=C1CCC2OC2(C)CCC2C1CC2(C)C (centres unmarked) [Material 1148] |  |  |  | 0.5
17 | CC1(C)C2CCC3(C2)C1C(=O)CCC3(C)C (centres unmarked) [Material 1149] |  |  | 0 | 0.8
18 | CCCCCCCCCCCO [Undecanol] |  |  |  | 0.8
